Results published in patent US20120082676A1 (RESEARCH FOUNDATION OF STATE UNIVERSITY OF NEW YORK, published 2012).
Results are given in words; binding and its absence hold for the method and conditions named. Some entries that bind do so weakly or less than the wild type.

Amino acid sequences for entries named in this document (tags omitted). Residues count along the entry.
UniProt Q07021, residues 74-282: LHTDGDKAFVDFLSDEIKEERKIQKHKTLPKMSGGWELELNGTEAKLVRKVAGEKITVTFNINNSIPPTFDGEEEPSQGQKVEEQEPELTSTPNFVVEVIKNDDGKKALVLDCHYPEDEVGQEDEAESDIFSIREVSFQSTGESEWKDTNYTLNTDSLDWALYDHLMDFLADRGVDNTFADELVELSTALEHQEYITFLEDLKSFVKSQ

Target: T1, HKH20 (HK peptide, residues 479-498)
T1 sequence (peptide): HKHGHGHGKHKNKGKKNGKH
Assay: ELISA, wells coated with HK peptide, biotinylated gC1q-R in solution

binding: binds
Substance: gC1q-R (receptor for the globular heads of C1q), highly purified recombinant, full-length (from UniProt Q07021 74-282)
